# Reference: doi:10.1101/2021.07.06.451342
# Results are given in words; binding and its absence hold for the method and conditions named. Binding seen in cells or lysates may run through a third protein. Binding can be weak; no strength is given.
# B1: CatSper1 (protein, UniProt Q91ZR5 1-686)
# chain: MDQSSRRDESYHETHPGSLDPSHQSHPHPHPHPTLHRPNQGGVYYDSPQHGMFQQPYQQHGGFHQQNELQHLREFSDSHDNAFSHHSYQQDRAGVSTLPNNISHAYGGSHPLAESQHSGGPQSGPRIDPNHHPHQDDPHRPSEPLSHPSSTGSHQGTTHQQYHERSHHLNPQQNRDHADTISYRSSTRFYRSHAPFSRQERPHLHADHHHEGHHAHSHHGEHPHHKEQRHYHGDHMHHHIHHRSPSASQLSHKSHSTLATSPSHVGSKSTASGARYTFGARSQIFGKAQSRESLRESASLSEGEDHVQKRKKAQRAHKKAHTGNIFQLLWEKISHLLLGLQQMILSLTQSLGFETFIFIVVCLNTVILVAQTFTELEIRGEWYFMVLDSIFLSIYVLEAVLKLIALGLEYFYDPWNNLDFFIMVMAVLDFVLLQINSLSYSFYNHSLFRILKVFKSMRALRAIRVLRRLSILTSLHEVAGTLSGSLPSITAILTLMFTCLFLFSVVLRALFQDSDPKRFQNIFTTLFTLFTMLTLDDWSLIYIDNRAQGAWYIIPILMIYIVIQYFIFLNLVIAVLVDNFQMALLKGLEKVKLEQAARVHEKLLDDSLTDLNKADANAQMTEEALKMQLIEGMFGNMTVKQRVLHFQFLQLVAAVEQHQQKFRSQAYVIDELVDMAFEAGDDDYGK
# B2: CatSper2 (protein, UniProt A2ARP9 1-588)
# chain: MAQEQGHFQLLRADAIRSKLIDTFSLIEHLQGLSQAVPRHTLREILDPSYQQKLMSGDQEQLVRFSIKPRRMGHITHSRRLLSRLRVRCSRMPPLSLWAGWVLDSSVFSKFIISLIFLNTFVLMVEIELMESTNTALWPVKLALEVADWFILLSFIVEILLMWLASFSLFWKDAWNVFDFFVTLLSLLPELVVLLGVPAHSVWLQLLRVCRVLRSLKLFARFRQIKVILLALVRALKSMTFLLMLLLIFFYIFAVTGVYFFREYSRSTIEGLEYNMFFSDLLNSLVTVFILFTLDHWYAVLQDIWKVPESSRVFSSIYVILWLLLGSIIFRNIIVAMMVTNFQNIRSELSEEMSHLEVQYKADMFKQQIIQRRQHSESLRGTSLGKVSEDIIETSDASDDDDDDDDDDDDDDDDDDDKSDATESDNEESDSENSESENSESEKIDPEKDYAKKSYPEKSHPEKSYPEKSHPEKSYPEKSHPKKSYDEQAEAEKVKEESKEKAYPVSHSISSHGSTAADTAFLENLDWETLVHENLPGLMDMDQDDRIVWPRDSLFRYFELLEKLQYNLEERKKLQEFAVQALMSFEDK
# B3: CatSper3 (protein, UniProt Q80W99 1-395)
# chain: MSQHFHHNPVRVKSGSLFATASEALQARLSKIKRKDKECQAYFRKVIKSTFFQIVMITTVTTNSFLLVLGTNYDIQFEFFRTFEVSELFFVSVYVCEFLMKVYVDPITYWKDGYNILDVIILIILTIPYLLRKIKGNHSAYLHFADGIQSLRILKLISYSRGIRTLIIAVGETVYTVASVLTLLFLLMFVFAILGFCLFGVTDRGDLENWGNLASAFFTLFSLATVDGWTDLQEELDKRKFTVSRAFTILFILLASFIFLNMFVGVMIMHTEDSMKKFERDLTLERNLAIMEEKQIILKRQQEEVNRLMNTQKSGSMNFIDMVEGFKKTLRHTDPMVLDDFSTSLSFIDIYLVTLDNQDVIVSKLQELYCEIVNVLSLMLEDMPKESSSSLSGLS
# B4: CatSper4 (protein, UniProt Q8BVN3 1-442)
# chain: MSEKHKWWQQVENIDITHLGPKRKAYELLGRHEEQVLINRRDVMEKKDAWDVQEFITQMYIKQLLRHPAFQLLLAFLLLSNAITIALRTNSYLGQKHYELFSTIDDIVLTILICEVLLGWLNGFWIFWKDGWNILNFAIVFILFMGFFIKQLDMVAITYPLRVLRLVHVCMAVEPLARIIKVILQSMPDLANVMALILFFMLVFSVFGVTLFGAFVPKHFQNMGVALYTLFICITQDGWLDIYTDFQMDEREYAMEVGGAIYFAVFITLGAFIGLNLFVVVVTTNLEQMMKTGEEEGHLNIKFTETEEDEDWTDELPLVHCTEARKDTSTVPKEPLVGGPLSNLTEKTCDNFCLVLEAIQENLMEYKEIREELNMIVEEVSSIRFNQEQQNVILHKYTSKSATFLSEPPEGANKQDLITALVSREKVSDSNINMVNKHKFSH
# B5: CatSperζ (protein, UniProt Q9CQP8 1-194)
# chain: MEESVKPVPKHANHRRSSVRSSLYGDVRDLWSTATMSTANVSVSDVCEDFDEEGKSVRNRIRKYSQTISIRDSLNLEPEEIQQQARRELELCHGRSLEHGEDHEESETSLASSTSESLIFSLWKPHRTYWTEQQNRLPLPLMELMETEVLDILKKALITYRSTIGRNHFMTKELQGYIEGIRKRRNKRLYFLDQ
# Molecular target: C2CD6S (C2 calcium dependent domain containing 6, short isoform) (mouse)
# Test: co-IP
row,Binder,binding
1,B1,binds
2,B2,binds weakly
3,B3,binds
4,B4,binds
5,B5,no binding
